Measured data: PubChem BioAssay AID720710 (VTT Finland, 2013)

- Purpose: 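Knock-downs that leave cyclin E-high cells sensitive to replication stress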 (primary screen)
- Cells: human U-2 OS bone cancer cells, parental and a cyclin E (CCNE1) overexpressing line
- Reagent: single siRNA against human genes, 1 µM siRNA in the printed spot mix
- Time to read-out: 67 h
- Conditions: half the arrays: hydroxyurea 2 mM for 16 h, then 3 h recovery; other arrays untreated
- Read-out: 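DNA synthesis measured as imaged EdU uptake per nucleus (DAPI) at 67 h, normalised to subgrid median and given as z-score versus non-targeting controls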
- Reading the numbers: EdU z-score, cyclin E line, hydroxyurea and EdU z-score, parental, hydroxyurea and EdU z-score, cyclin E line, untreated and EdU z-score, parental, untreated: higher = more DNA synthesis than non-targeting controls
The whole screen tested about 1,380 reagents; shown is a random part of them. 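One array per condition without replicates; hydroxyurea arrays received 2 mM for 16 h plus 3 h recovery.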

The opening 6 entries, to show the layout:
Target gene,PubChem SID,"EdU z-score, cyclin E line, hydroxyurea","EdU z-score, parental, hydroxyurea","EdU z-score, cyclin E line, untreated","EdU z-score, parental, untreated"
SP8,SID164222822,0.975,-2.9,-0.194,0.643
SP8,SID164222823,1.53,2.76,0.666,0.887
ASF1A,SID164221694,-1.97,-0.79,-7.84,-0.33
ASF1A,SID164221695,0.972,2.19,-0.588,0.482
CHEK2,SID164221840,-1.76,-1.41,-2.16,-3.1
CHEK2,SID164221841,4.4,0.701,-0.155,-0.298

The listing, from the start:
Target gene,PubChem SID,"EdU z-score, cyclin E line, hydroxyurea","EdU z-score, parental, hydroxyurea","EdU z-score, cyclin E line, untreated","EdU z-score, parental, untreated"
SP8,SID164222822,0.975,-2.9,-0.194,0.643
SP8,SID164222823,1.53,2.76,0.666,0.887
ASF1A,SID164221694,-1.97,-0.79,-7.84,-0.33
ASF1A,SID164221695,0.972,2.19,-0.588,0.482
CHEK2,SID164221840,-1.76,-1.41,-2.16,-3.1
CHEK2,SID164221841,4.4,0.701,-0.155,-0.298
CREBBP,SID164221850,0.108,0.675,-1.95,0.104
CREBBP,SID164221851,2.23,1,-0.931,0.587
EREG,SID164221942,-0.799,-0.81,-4.96,-1.67
EREG,SID164221943,0.773,-0.266,-1.89,0.12
NAP1L2,SID164222370,0.279,-0.837,-1.05,-2.66
NAP1L2,SID164222371,0.826,0.243,-0.134,-1.11
POT1,SID164222536,-0.448,-1.31,-2.01,-0.435
POT1,SID164222537,-0.199,0.256,-1.92,1.76
RAD17,SID164222582,-1.4,-2.09,-1.51,-1.02
RAD17,SID164222583,-0.835,-1.26,-0.107,-0.638
POLD2,SID164222502,-0.428,-3.39,-0.898,-1.1
POLD2,SID164222503,0.179,-0.155,0.0312,-0.51
ZNF142,SID164223016,-0.775,-2.32,-0.514,-0.664
ZNF142,SID164223017,-0.601,2.23,1.14,1.35
FANCC,SID164221968,-0.908,-1.95,-1.93,-1.18
FANCC,SID164221969,0.668,4.89,0.251,1.9
TIMELESS,SID164222880,-0.111,-0.249,-1.09,-0.388
TIMELESS,SID164222881,-0.00676,2.68,0.191,-0.0694
CBX8,SID164221772,-2.32,-4.04,-1.26,-2.74
CBX8,SID164221773,0.295,-0.514,-0.325,2.63
BRIP1,SID164221736,-2.02,-3.24,-0.797,-0.249
BRIP1,SID164221737,0.0853,0.252,-0.249,1.06
KLHL40,SID164222192,-1.48,-0.665,-0.762,-2.08
KLHL40,SID164222193,-0.688,0.591,0.202,-0.0793
TNP1,SID164222902,-1.99,-0.974,-0.204,-4.32
TNP1,SID164222903,-0.278,-0.244,1.15,-0.287
ACTL6B,SID164221668,-2.41,-0.918,-1.84,-2.04
ACTL6B,SID164221669,0.254,-0.213,0.914,1.89
ORC3,SID164222448,-1.82,-1.7,-1.01,-0.0369
ORC3,SID164222449,1.01,0.093,0.453,0.442
SIRT1,SID164222752,-0.522,0.287,-2.12,-0.695
SIRT1,SID164222753,-0.4,0.471,-0.44,-0.595
NCAPD3,SID164222384,-1.7,-1.54,-1.78,0.228
NCAPD3,SID164222385,-1.04,0.46,0.0168,1.21
SMARCC1,SID164222780,-2.31,-4.13,-5.05,-2.44
SMARCC1,SID164222781,-1.17,-3.17,-2.19,0.833
HDAC11,SID164222048,-0.248,0.31,-2.51,-0.949
HDAC11,SID164222049,0.299,1.78,-1.02,0.46
POLD4,SID164222506,-2.96,-1.79,-0.342,-1.27
POLD4,SID164222507,0.653,0.776,-0.118,0.175
INO80,SID164222182,-0.888,-0.692,-0.825,-1.08
INO80,SID164222183,-0.106,0.191,1.16,0.51
SUMO1,SID164222840,-0.81,-1.78,-0.908,-1.59
SUMO1,SID164222841,-0.776,-1.02,0.57,-0.578
H2BC4,SID164222094,-0.289,0.517,-2.23,-1.72
H2BC4,SID164222095,0.791,1.69,-0.933,-0.129
ZNF488,SID164223022,-0.508,0.344,-0.739,-0.0365
ZNF488,SID164223023,0.372,0.45,1.44,0.661
PINX1,SID164222482,-0.748,-1.75,1.29,-1.05
PINX1,SID164222483,-0.333,-0.141,1.82,1.12
SETD2,SID164222726,0.0623,-1.12,-6.87,-0.633
SETD2,SID164222727,0.707,1.38,-0.0675,-0.234
